Laboratory results reported in publication doi:10.1101/534339.
No constants are given. Whether binding was seen depends on the method and setting. Binding seen in cells or lysates may run through a third protein. Here binding means that the protein was enriched with, or labelled near, the bait; the list need not be complete.

Sequences of proteins named here, by UniProt entry; tags and fusion partners are left off.
UniProt Q10006: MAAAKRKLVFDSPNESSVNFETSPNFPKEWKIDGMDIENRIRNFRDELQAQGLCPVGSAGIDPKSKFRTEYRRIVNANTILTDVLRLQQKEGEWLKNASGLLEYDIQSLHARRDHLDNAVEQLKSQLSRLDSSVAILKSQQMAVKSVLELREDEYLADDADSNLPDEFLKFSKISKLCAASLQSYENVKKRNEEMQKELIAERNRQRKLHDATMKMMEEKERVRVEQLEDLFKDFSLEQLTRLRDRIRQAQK

B1: PGL-1 (protein, UniProt Q9TZQ3 1-730)
chain: MEANKREIVDFGGLRSYFFPNLAHYITKNDEELFNNTSQANKLAAFVLGASKDAPGDEDILEMILPNDANAAVIAAGMDVCLLLGDKFRPKFDAAAEKLSGLGHAHDLVSVIDDDKKLGMLARKAKLKKTEDAKILQALLKVIAIDDAAEKFVELTELVSQLDLDFDVYVLTKILGLISEETSDEVDIIRDNVVNAFDSCKPLLKQLMLDGPKSEPADPFISLLMDPLEESVGKVVNHIAQLFEEASKNEGDESLVLRSQLGYQLFFLIVRSLADGKREVSKKILSGIPTSVRAEVFPGLQRSVYKSAVFLGNHIIQVLLGSKKSFEDWDVVGVAKDLESAWKRRAIAELIKKFQVSILEQCFDKPVPLIPQSPLNNDAVIDNVNKALQFALWLTEFYGSENETEALGELRFLDSTSKNLLVDSFKKFVQGINSKTHVTRIVESLEKCCLSDTPSGRKSNVQPSTSQQQDSAYTKEEMTTVHNTYSVNTKAQVLNGLSDTNSSGLLVDSKDSLSLQEISCDEVDSSTLLSSSRNIGEGVTVKAVDPVPEKVNDAQQQQTVNEIEMASDANQDTSSSASPEVAPSFSTDGWDSPTKSVALPPGMQQIDEEETTVADKDSTPQPQARAETAWGSGDATPMPLPAPTNQYKVSGFGEAKVAKGFGQFAPTSSAYGGGGGRGGYGGGDRGGRGGYGGDRGGRGGYGGGDRGGRGGYGGDRGRGGYGGRGGRGGF
B2: OMA-1 (protein, UniProt G5EC86 1-407)
chain: MNVNGENNEKIDEHHLESSLAGVPTLPVSPLDHAKDLSQTNPNAQIGDLVTQTANLIAIKKQLLEDIAFNQHIQSMQVRAIQSFPQNNQVAPPFQQFDPRRRGLARMQKPESYKTVICQAWLESKTCSFADNCRFAHGEEELRPTFVEPLQNNKYKTKLCDKYTTTGLCPYGKRCLFIHPDHGPNAYIRADKLLEVSQRHALADIRDQMEQHIMTNGRIAAPPLSAIQHPLEMFARPSTPDEPAAKLPLGPTPVSTRGPRYELPTKELHDAEGAMTYPPSRWPLDPSMFALDAWNMAHRPASPLDSMVLGSAPNAGSFGMLGKQNTPGGVSGYSSAGSTPSQDLSSSSLNAASAAAAAAYFANSAVAQSLLMKSVATDPMMSCNGPFSPMPGFDQLAENMTKHLNLW
B3: CGH-1 (protein, UniProt Q95YF3 1-430)
chain: MSGAEQQQIVPANNGDENWKAGLNLPAKDRRFKTADVTDTKGVEFEDFCLGRDLLMGIFEKGWEKPSPIQEASIGVALTGQDILARAKNGTGKTGAYCIPVIEKIQPALKAIQAMVIVPTRELALQTSQICVELSKHIQLKVMVTTGGTDLRDDIMRLNGTVHLVIATPGRILDLMEKGVAKMEHCKTLVLDEADKLLSQDFQGILDRLINFLPKERQVMLYSATFPNTVTSFMQKHMHKPYEINLMEELTLLGVTQYYAFVQEKQKVHCLNTLFRKLQINQSIIFCNSTQRVELLAKKITEIGYSCYYIHSKMAQNHRNRVFHDFRQGNCRNLVCSDLLTRGIDIQAVNVVINFDFPRNAETYLHRIGRSGRFGHLGVAINLITYEDRHTLRRIEQELRTRIEPIPKTVDPKLYVADQQLVDAADETTA

Biological target: GFP::HAL-2 fusion protein (C. elegans) (UniProt Q7YWU3)
Test: affinity purification with mass spectrometry

binding, binds:
HAL-3 (Homolog Alignment 3) (from UniProt Q10006 1-252)
B1
B2
B3
